Patent US9365598B2, “Phosphine derivatives of fluorescent compounds” (Pierce Biotechnology, Inc., priority 2011, dated 2016)

How the values were obtained:
[1] = tested on: azide-PEG4-GAR; assay: Labeling efficiency (moles of dye per mole of protein, D/P), compound-PEG4-GAR conjugates; design: species or system goat; settings: GAR-containing conjugates; 10× molar ratio
[2] = tested on: azido-PEG4-GAM; assay: Labeling efficiency (D/P), compound-PEG4-GAM conjugates; settings: GAM-containing conjugates

“2-((1E,3E)-3-(1-(6-(2-(3-(diphenylphosphino)-4-(methoxycarbonyl)benzamido)ethylamino)-6-oxohexyl)-3-methyl-5-sulfonato-3-(3-sulfonatopropyl)indolin-2-ylidene)prop-1-enyl)-1-(2-methoxyethyl)-3-methyl-3-(3-sulfonatopropyl)-3H-indolium-5-sulfonate [550 Compound 1-phosphine]” was tested, and the “increase in mole dye to mole protein ratio (D/P) over DyLight 549 or DyLight 649” value [1] was 25% and the “decrease in mole dye to mole protein ratio (D/P) versus DyLight 549” value [2] was 2%.
